No constants are given. Whether binding was seen depends on the method and setting. In cells and extracts the contact can be indirect. Some entries that bind do so weakly or less than the wild type.
Biological target: insulin receptor (IR) (human (endogenous in HLF)) (UniProt P06213)
Assay: co-IP; lysate of HLF cells transfected with siControl or siTrip13 (IP lysis buffer, sonicated); 400 ug lysate precleared, insulin receptor antibody (GFP antibody as control) overnight at 4 C, protein G agarose, 5 washes, elution in glycine pH 3.5, western blot; for co-immunoprecipitation of Mad2 the Pierce Co-IP kit

Chains of the proteins cited; added tags and fusions are not shown. Residues count along the entry.
UniProt P06213, residues 28-1382: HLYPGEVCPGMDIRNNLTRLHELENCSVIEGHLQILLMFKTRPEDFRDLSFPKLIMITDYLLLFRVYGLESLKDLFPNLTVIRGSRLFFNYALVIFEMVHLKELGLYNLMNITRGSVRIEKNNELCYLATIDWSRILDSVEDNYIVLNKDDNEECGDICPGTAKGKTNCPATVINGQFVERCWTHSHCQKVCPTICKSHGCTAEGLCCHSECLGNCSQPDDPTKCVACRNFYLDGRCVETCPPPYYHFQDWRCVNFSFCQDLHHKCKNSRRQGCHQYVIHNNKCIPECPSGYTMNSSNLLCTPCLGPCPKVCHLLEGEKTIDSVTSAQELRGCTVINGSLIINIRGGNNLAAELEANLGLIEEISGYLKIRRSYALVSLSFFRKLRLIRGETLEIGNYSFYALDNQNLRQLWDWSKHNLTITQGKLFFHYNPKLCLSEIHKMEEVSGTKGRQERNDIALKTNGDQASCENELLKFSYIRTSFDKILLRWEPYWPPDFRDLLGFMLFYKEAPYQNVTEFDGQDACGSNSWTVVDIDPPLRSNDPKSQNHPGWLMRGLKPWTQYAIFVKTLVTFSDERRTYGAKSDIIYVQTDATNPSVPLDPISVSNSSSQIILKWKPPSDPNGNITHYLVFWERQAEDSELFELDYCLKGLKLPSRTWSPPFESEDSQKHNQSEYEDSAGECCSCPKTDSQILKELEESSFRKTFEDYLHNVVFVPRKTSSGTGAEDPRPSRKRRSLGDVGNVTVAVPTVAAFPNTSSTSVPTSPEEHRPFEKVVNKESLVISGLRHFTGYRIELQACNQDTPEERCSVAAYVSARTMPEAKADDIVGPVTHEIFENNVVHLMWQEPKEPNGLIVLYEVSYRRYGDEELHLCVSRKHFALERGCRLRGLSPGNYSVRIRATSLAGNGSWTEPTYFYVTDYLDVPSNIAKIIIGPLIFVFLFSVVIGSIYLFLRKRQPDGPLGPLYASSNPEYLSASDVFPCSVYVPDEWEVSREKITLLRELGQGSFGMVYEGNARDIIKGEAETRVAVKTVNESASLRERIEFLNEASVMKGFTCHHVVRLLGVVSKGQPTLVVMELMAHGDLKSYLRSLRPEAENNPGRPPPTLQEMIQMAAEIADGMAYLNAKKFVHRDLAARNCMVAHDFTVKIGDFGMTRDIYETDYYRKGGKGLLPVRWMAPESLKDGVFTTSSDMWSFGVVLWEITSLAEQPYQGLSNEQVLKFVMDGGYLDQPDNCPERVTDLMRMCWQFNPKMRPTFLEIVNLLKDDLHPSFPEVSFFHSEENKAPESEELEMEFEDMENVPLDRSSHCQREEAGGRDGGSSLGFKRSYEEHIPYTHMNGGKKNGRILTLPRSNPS
UniProt Q13257: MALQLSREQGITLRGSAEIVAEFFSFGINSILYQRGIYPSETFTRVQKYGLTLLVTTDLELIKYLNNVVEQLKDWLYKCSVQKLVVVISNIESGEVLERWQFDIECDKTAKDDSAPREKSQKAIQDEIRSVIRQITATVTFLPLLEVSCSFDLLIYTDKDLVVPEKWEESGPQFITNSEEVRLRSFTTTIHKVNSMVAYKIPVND

Substance: mitotic arrest deficient 2 (Mad2) (from UniProt Q13257 1-205)
- binding: binds
